Results reported in paper PMC11310345.

Target: T1, RIMKLA containing 6×His-tag, overexpressed from adenovirus (Ad-RIMKLA) (UniProt Q6PFX8)
T1 sequence: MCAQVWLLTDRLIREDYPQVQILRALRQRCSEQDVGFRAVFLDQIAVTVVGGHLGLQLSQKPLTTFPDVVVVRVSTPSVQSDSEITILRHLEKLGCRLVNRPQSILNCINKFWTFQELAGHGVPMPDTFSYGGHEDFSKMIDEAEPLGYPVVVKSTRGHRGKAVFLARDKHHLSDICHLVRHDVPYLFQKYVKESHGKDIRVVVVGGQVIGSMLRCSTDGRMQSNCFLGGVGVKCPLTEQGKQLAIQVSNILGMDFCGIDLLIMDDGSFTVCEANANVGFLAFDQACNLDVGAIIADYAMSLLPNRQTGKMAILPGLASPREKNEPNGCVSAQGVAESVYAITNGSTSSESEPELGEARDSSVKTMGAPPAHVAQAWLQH
Test: affinity purification with mass spectrometry; mouse hepatocytes infected with Ad-RIMKLA (6×His) for 24 h; lysate precipitated with IgG or anti-His antibodies; PAGE, silver staining, indicated bands analysed by MS

B1: betaine-homocysteine S-methyltransferase 1 (BHMT1), endogenous (enzyme, UniProt O35490 1-407)
chain: MAPVAGKKAKKGILERLNAGEVVIGDGGFVFALEKRGYVKAGPWTPEAAVEHPEAVRQLHREFLRAGSNVMQTFTFYASEDKLENRGNYVAEKISGQKVNEAACDIARQVADEGDALVAGGVSQTPSYLSCKSEVEVKKIFRQQLEVFMKKNVDFLIAEYFEHVEEAVWAVEALKASGKPVAATMCIGPEGDLHGVPPGECAVRLVKAGASIVGVNCHFDPSVSLQTVKLMKEGLEAARLKAYLMSQPLAYHTPDCGKQGFIDLPEFPFGLEPRVATRWDIQKYAREAYNLGVRYIGGCCGFEPYHIRAIAEELAPERGFLPPASEKHGSWGSGLDMHTKPWIRARARKEYWQNLRIASGRPYNPSMSRPDAWGVTKGAAELMQQKEATTEQQLRELFEKQKFKSAQ
- binding: binds

These are yes or no findings as the source states them, for the method shown. Binding seen in cells or lysates may run through a third protein. Here binding means that the protein was enriched with, or labelled near, the bait; the list need not be complete. Where a sequence is shown, tags or fusion partners need not be part of it.
